Results taken from paper PMC9028075.
These are yes or no findings as the source states them, for the method shown. In cells and extracts the contact can be indirect. Some entries that bind do so weakly or less than the wild type.

By UniProt entry, the sequences of proteins in these tests, tags left out. Residues count along the entry.
UniProt P02787, residues 20-698: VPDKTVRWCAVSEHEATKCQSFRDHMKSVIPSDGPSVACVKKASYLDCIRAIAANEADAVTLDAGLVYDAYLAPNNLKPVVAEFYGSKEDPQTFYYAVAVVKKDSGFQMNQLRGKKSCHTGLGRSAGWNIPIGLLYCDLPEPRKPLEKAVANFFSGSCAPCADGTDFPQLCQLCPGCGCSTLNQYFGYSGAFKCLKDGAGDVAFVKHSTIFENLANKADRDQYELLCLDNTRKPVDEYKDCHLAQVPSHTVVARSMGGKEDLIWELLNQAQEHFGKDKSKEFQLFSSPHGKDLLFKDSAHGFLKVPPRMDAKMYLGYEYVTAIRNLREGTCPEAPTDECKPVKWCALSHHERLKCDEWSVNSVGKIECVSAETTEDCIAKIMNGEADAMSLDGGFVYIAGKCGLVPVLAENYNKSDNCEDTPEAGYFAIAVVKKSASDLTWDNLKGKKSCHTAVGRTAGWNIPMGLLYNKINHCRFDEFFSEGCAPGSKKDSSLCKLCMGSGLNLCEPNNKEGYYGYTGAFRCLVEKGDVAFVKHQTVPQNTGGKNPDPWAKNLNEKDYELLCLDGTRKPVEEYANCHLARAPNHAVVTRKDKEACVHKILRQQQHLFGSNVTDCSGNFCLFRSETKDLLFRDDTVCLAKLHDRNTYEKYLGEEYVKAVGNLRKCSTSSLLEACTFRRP
UniProt P02768, residues 25-609: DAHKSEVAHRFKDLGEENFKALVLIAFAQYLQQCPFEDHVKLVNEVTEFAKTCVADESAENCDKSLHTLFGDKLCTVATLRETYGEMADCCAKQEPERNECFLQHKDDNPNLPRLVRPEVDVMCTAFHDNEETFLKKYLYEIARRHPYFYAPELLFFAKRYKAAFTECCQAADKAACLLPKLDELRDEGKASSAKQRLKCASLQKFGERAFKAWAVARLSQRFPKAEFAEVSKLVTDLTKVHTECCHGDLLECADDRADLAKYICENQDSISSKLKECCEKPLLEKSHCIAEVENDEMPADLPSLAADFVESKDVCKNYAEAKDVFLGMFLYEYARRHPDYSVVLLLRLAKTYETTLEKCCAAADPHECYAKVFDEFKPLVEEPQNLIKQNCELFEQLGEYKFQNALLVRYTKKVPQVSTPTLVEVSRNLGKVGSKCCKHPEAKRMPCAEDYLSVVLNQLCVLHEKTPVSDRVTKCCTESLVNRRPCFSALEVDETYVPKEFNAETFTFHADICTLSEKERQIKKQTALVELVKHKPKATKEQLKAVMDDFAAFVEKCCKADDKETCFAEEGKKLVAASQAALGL
UniProt P02649, residues 19-317: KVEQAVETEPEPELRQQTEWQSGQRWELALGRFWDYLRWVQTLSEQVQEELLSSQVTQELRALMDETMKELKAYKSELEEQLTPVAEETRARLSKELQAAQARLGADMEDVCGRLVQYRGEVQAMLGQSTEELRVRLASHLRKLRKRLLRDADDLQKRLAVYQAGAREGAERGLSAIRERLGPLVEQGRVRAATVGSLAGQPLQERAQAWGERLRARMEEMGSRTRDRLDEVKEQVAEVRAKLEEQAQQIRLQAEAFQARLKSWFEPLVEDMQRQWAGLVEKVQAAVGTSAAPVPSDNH

target: T1, GBVA10-9scr, scrambled negative control peptide for GBVA10-9; experiment: pull-down; biotinylated peptides (2 ug) on streptavidin agarose resin (10 uL), 30 min at 4 °C with 10% human serum (25 uL) and PBS (200 uL); beads spun down, washed once with cold PBS; bound proteins detected by immunoblot; only the target purified
T1 sequence (peptide, biotin on the C-terminal lysine, K(Biotin), as printed in Table 1): LTCLKGRLVRWRLRTYFLK

Row | binding | Substance
1 | binds | transferrin (from UniProt P02787 20-698)
2 | binds | albumin (from UniProt P02768 25-609)
3 | binds | apolipoprotein E (from UniProt P02649 19-317)
